Structures can show the parent of a compound that is named as a salt. The list shows a part of the results. Repeats are few or missing, and single values can be far off.

The assay has as its system Trypanosoma brucei brucei bloodstream form L262P (kDNA-independent). Description: viability Z-score (nuclei count per well, median-polish normalised, relative to plate distribution); higher = more viable parasites (negative = growth inhibition). Conditions: 4 days; compound concentration: 10 µM (some Prestwick/PKE rows may be 1 µM / not distinguished).
As for `COc1ccc(CCN2CCC(Nc3nc4ccccc4n3Cc3ccc(F)cc3)CC2)cc1` [Astemizole], the “viability Z-score” value was -2.01.

As for `CN1C[C@H](C(=O)N[C@]2(C)O[C@@]3(O)[C@@H]4CCCN4C(=O)[C@H](Cc4ccccc4)N3C2=O)CC2c3cccc4[nH]cc(c34)C[C@H]21.CN1C[C@H](C(=O)N[C@]2(C)O[C@@]3(O)[C@@H]4CCCN4C(=O)[C@H](Cc4ccccc4)N3C2=O)C[C@@H]2c3cccc4[nH]cc(c34)C[C@H]21` (stereo partly drawn) [Dihydroergotamine tartrate], the “viability Z-score” value was -1.21.

In the case of `CC(C)(C)c1cc(C=C(C#N)C#N)cc(C(C)(C)C)c1O`, the “viability Z-score” value was -3.03.

On to `CN[C@H]1C[C@@H]2O[C@](C)([C@H]1OC)n1c3ccccc3c3c4c(c5c6ccccc6n2c5c31)C(=O)NC4` [Staurosporine], for which the “viability Z-score” value was -6.69.

Take `C[C@@]12C[C@@H](O)CCN1CCc1ccccc12`: the “viability Z-score” value is -1.48.

As for `O[C@@]([H])(CN(CC)CC)C1=CC=C(C=C1)[C@]2([H])CCCC2`, the “viability Z-score” value was -5.48.

As for `O=P1(N(CCCl)CCCl)NCCCO1` (stereo not drawn) [Cyclophosphamide], the “viability Z-score” value was -3.98.

Take `N#C/C1=C/C=C/C=C1/CO/C2=C/C=C(C=C2)N4C(C)=CC(/C=C3/C(=O)NC(=[S])NC3=O)=C4C`: the “viability Z-score” value was -5.76.

Take `O=c1[nH]c2ccccc2n1C1CCN(CCCC(c2ccc(F)cc2)c2ccc(F)cc2)CC1` [Pimozide]: the “viability Z-score” value was -3.25.

Turning to `CN1C(=O)[C@]23CC4=CC=C[C@H](O)[C@H]4N2C(=O)[C@@]1(CO)SS3` [Gliotoxin], the “viability Z-score” value is -6.59.

On to `CC[C@@]1([C@@H]2O[C@@H]([C@H]3O[C@@](O)(CO)[C@H](C)C[C@@H]3C)C[C@@H]2C)CC[C@H]([C@]2(C)CC[C@]3(C[C@H](O)[C@@H](C)[C@@H]([C@@H](C)[C@@H](OC)[C@H](C)C(=O)[O-])O3)O2)O1` [Monensin sodium salt], for which the “viability Z-score” value was -2.1.

Turning to `N#C/C3=C/C([Cl])=C(CN1CCN(CC1)C=2C=CC=CC=2OC)C=C3`, the “viability Z-score” value was -4.34.

Take `CN(C(=O)c1ccco1)c1ccc(Cl)cc1C(=O)c1ccccc1`: the “viability Z-score” value is -3.65.
